PubChem BioAssay AID1159584, Peter MacCallum Cancer Centre, 2016
Aim: 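Genes whose loss is lethal only together with E-cadherin loss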 (primary screen). Cells: human MCF10A breast epithelial cells, parental and CDH1-null. Reagents: siRNA against human genes. Read-out: 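ATP luminescence (CellTiter-Glo) viability per line relative to mean mock wells over all plates, and the ratio of CDH1-null to parental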. Direction: CDH1-null / parental viability ratio: higher = CDH1-null cells survive relatively better than parental; CDH1-null viability vs mock: higher = more viable CDH1-null cells.
In all, the deposit lists about 18,000 reagents; shown is a part drawn at random. Not all columns of the deposit are shown. No sequences are given here. Not stated in the record: the amount of reagent, the time to read-out.

The opening 4 entries, ahead of the listing:
| gene | PubChem SID | CDH1-null / parental viability ratio | CDH1-null viability vs mock (fraction of mock) |
| --- | --- | --- | --- |
| NALF1 | SID135625573 | 0.99 | 0.86 |
| MVK | SID56479115 | 1.02 | 0.62 |
| MDM2 | SID135620653 | 0.99 | 0.94 |
| CIART | SID152150099 | 0.92 | 0.44 |

The list itself, from the start:
| gene | PubChem SID | CDH1-null / parental viability ratio | CDH1-null viability vs mock (fraction of mock) |
| --- | --- | --- | --- |
| NALF1 | SID135625573 | 0.99 | 0.86 |
| MVK | SID56479115 | 1.02 | 0.62 |
| MDM2 | SID135620653 | 0.99 | 0.94 |
| CIART | SID152150099 | 0.92 | 0.44 |
| GFRA4 | SID152147361 | 0.95 | 0.59 |
| ARSB | SID152149476 | 1.02 | 0.63 |
| NIPSNAP1 | SID134315824 | 0.81 | 0.81 |
| CCDC93 | SID152148988 | 0.74 | 0.52 |
| UCP2 | SID134310750 | 1.14 | 0.91 |
| BLZF1 | SID135624204 | 0.9 | 0.96 |
| ACADSB | SID152148285 | 0.81 | 0.79 |
| WDR90 | SID152148504 | 0.92 | 0.68 |
| COLEC12 | SID152153957 | 1.09 | 0.73 |
| ADIPOQ | SID134316249 | 1.03 | 0.99 |
| KDM6A | SID134318317 | 1.29 | 0.72 |
| CT45A2 | SID135625699 | 0.9 | 0.45 |
| FBXL5 | SID135622318 | 1 | 0.88 |
| POGZ | SID135621278 | 0.89 | 0.64 |
| NPLOC4 | SID135624060 | 0.94 | 0.96 |
| TACC3 | SID134310293 | 1.03 | 0.79 |
| VWA3B | SID152150501 | 0.98 | 1 |
| NPM3 | SID134316624 | 1.25 | 1.21 |
| BRWD3 | SID152150726 | 1.03 | 0.96 |
| TGM7 | SID152156052 | 0.76 | 0.62 |
| C1QA | SID135622459 | 2.05 | 0.8 |
| HDAC5 | SID152150398 | 1.22 | 0.98 |
| OR5K3 | SID134329948 | 1.01 | 0.98 |
| PEX1 | SID152152245 | 1.07 | 0.77 |
| DLK2 | SID134318426 | 1.2 | 1.06 |
| CIMAP1D | SID134322573 | 1.08 | 1.05 |
| SUPV3L1 | SID152152339 | 1.17 | 1.01 |
| CATSPER2 | SID134311551 | 1.21 | 1.03 |
| ACVR1C | SID135620908 | 0.82 | 0.6 |
| LYSMD1 | SID152152304 | 1.11 | 0.62 |
| LAMA1 | SID134316413 | 1.09 | 0.82 |
| MTF2 | SID135622402 | 1.12 | 0.75 |
| CT47A7 | SID135625536 | 0.94 | 0.6 |
| SERPINB2 | SID135622007 | 1.07 | 0.62 |
| VARS2 | SID135621537 | 1.08 | 1.05 |
| POM121 | SID134321505 | 0.85 | 0.66 |
| XRCC1 | SID134314148 | 0.91 | 0.96 |
| UPK3B | SID134322996 | 0.93 | 0.38 |
| BICD2 | SID152148966 | 0.95 | 0.55 |
| TACSTD2 | SID134315107 | 0.89 | 0.7 |
| TIMM10 | SID152151922 | 1.06 | 0.92 |
| POGLUT1 | SID134320144 | 1.32 | 0.58 |
| MYBPC3 | SID152149987 | 1.16 | 1.16 |
| ANGPTL2 | SID134312745 | 1.2 | 1.08 |
| ATP10B | SID135625425 | 1.15 | 1.08 |
| ZNF574 | SID134312177 | 0.9 | 0.38 |
| DUSP10 | SID152152993 | 1.24 | 0.82 |
| MPDU1 | SID152147643 | 0.89 | 0.48 |
| RAPGEF4 | SID152148240 | 1.01 | 0.97 |
| YIPF7 | SID135623618 | 1.23 | 0.64 |
| HERC4 | SID152147236 | 1.22 | 0.84 |
| HJV | SID135623587 | 1.09 | 1 |
| NEIL3 | SID152156376 | 1.06 | 1.08 |
| KLHL38 | SID135624523 | 1.08 | 0.7 |
| PGAM1 | SID134313731 | 1.25 | 0.76 |
| NUP214 | SID134316287 | 1.01 | 0.81 |
| NRIP2 | SID134314073 | 0.76 | 0.61 |
| SIRT1 | SID152156258 | 0.98 | 0.94 |
| PARP9 | SID134318836 | 1.41 | 1.52 |
| MYT1L | SID152155177 | 1.06 | 0.95 |
| DOCK8-AS1 | SID134319941 | 1.19 | 1.01 |
| PLPP3 | SID134321253 | 1.37 | 0.92 |
| UGT1A10 | SID134317973 | 1.1 | 0.95 |
| BECN1 | SID152148764 | 0.89 | 0.8 |
